Measured values: the supplement of paper PMC4604168 (melanoma cell lines)
This is one part of the list. Repeats are few or missing, and single values can be far off.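 The apoptosis fraction was the count of cleaved-PARP antibody-stained nuclei relative to all DNA-stained nuclei, imaged in 1,536-well plates. Screening doses were set so most cells survived, and baseline and induced cleaved-PARP levels vary greatly across cell lines.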

The compounds below were run on MZ2-MEL (assay: cleaved PARP positive nuclei fraction relative to DMSO control; melanoma cells; higher = more apoptosis). Settings: library dose: low library concentration; 72 h.

Row | Compound | cleaved PARP positive nuclei fraction [%]
1 | CC[C@]1(O)C[C@H]2CN(CCc3c([nH]c4ccccc34)[C@@](C(=O)OC)(c3cc4c(cc3OC)N(C=O)[C@H]3[C@@](O)(C(=O)OC)[C@H](OC(C)=O)[C@]5(CC)C=CCN6CC[C@]43[C@@H]65)C2)C1 [vincristine] + CO[C@H]1C[C@@H]2CC[C@@H](C)[C@@](O)(O2)C(=O)C(=O)N2CCCC[C@H]2C(=O)O[C@H]([C@H](C)C[C@@H]2CC[C@@H](OCCO)[C@H](OC)C2)CC(=O)[C@H](C)/C=C(\C)[C@@H](O)[C@@H](OC)C(=O)[C@H](C)C[C@H](C)/C=C/C=C/C=C/1C [everolimus] (first compound 0.0001 µM, partner dose 0.02 µM) | 85
2 | COc1cc([C@@H]2c3cc4c(cc3[C@@H](O[C@@H]3O[C@@H]5CO[C@@H](C)O[C@H]5[C@H](O)[C@H]3O)[C@H]3COC(=O)[C@H]23)OCO4)cc(OC)c1O [etoposide] + CC1(C)CCC(c2ccc(Cl)cc2)=C(CN2CCN(c3ccc(C(=O)NS(=O)(=O)c4ccc(N[C@H](CCN5CCOCC5)CSc5ccccc5)c(S(=O)(=O)C(F)(F)F)c4)cc3)CC2)C1 [ABT263] (first compound 0.02 µM, partner dose 0.4 µM) | 174
3 | CC[C@]1(O)C[C@H]2CN(CCc3c([nH]c4ccccc34)[C@@](C(=O)OC)(c3cc4c(cc3OC)N(C=O)[C@H]3[C@@](O)(C(=O)OC)[C@H](OC(C)=O)[C@]5(CC)C=CCN6CC[C@]43[C@@H]65)C2)C1 [vincristine] + NC(=O)c1ccc(N(C(N)=O)c2c(F)cccc2F)nc1-c1ccc(F)cc1F [VX702] (first compound 0.0001 µM, partner dose 0.4 µM) | 83.6
4 | Cc1ccc(Nc2nccc(N(C)c3ccc4c(C)n(C)nc4c3)n2)cc1S(N)(=O)=O [Pazopanib] + C=CCNC1=C2C[C@@H](C)C[C@H](OC)[C@H](O)[C@@H](C)/C=C(\C)[C@H](OC(N)=O)[C@@H](OC)/C=C\C=C(/C)C(=O)NC(=CC1=O)C2=O [Tanespimycin] (first compound 0.4 µM, partner dose 0.002 µM) | 175
5 | O=C(Nc1cc(C(F)(F)F)cc(C(F)(F)F)c1)c1cc(Cl)ccc1O + Cn1c(=O)n(-c2ccc(C(C)(C)C#N)cc2)c2c3cc(-c4cnc5ccccc5c4)ccc3ncc21 [NVP-BEZ235] (first compound 0.016 µM, partner dose 0.004 µM) | 88.6
6 | Cc1cn(-c2cc(NC(=O)c3ccc(C)c(Nc4nccc(-c5cccnc5)n4)c3)cc(C(F)(F)F)c2)cn1 [nilotinib] + Cc1nc(Nc2ncc(C(=O)Nc3c(C)cccc3Cl)s2)cc(N2CCN(CCO)CC2)n1 [dasatanib] (first compound 0.2 µM, partner dose 0.004 µM) | 81.7
7 | Cc1cc(Nc2cc(N3CCN(C)CC3)nc(Sc3ccc(NC(=O)C4CC4)cc3)n2)n[nH]1 [Tozasertib] + O=C(O)c1ccc2c(c1)nc(Nc1cccc(Cl)c1)c1ccncc12 [CX4945] (first compound 0.006 µM, partner dose 0.4 µM) | 108
8 | O=C(Nc1cc(C(F)(F)F)cc(C(F)(F)F)c1)c1cc(Cl)ccc1O + CO[C@H]1C[C@@H]2CC[C@@H](C)[C@@](O)(O2)C(=O)C(=O)N2CCCC[C@H]2C(=O)O[C@H]([C@H](C)C[C@@H]2CC[C@@H](OCCO)[C@H](OC)C2)CC(=O)[C@H](C)/C=C(\C)[C@@H](O)[C@@H](OC)C(=O)[C@H](C)C[C@H](C)/C=C/C=C/C=C/1C [everolimus] (first compound 0.016 µM, partner dose 0.02 µM) | 43.1
9 | Cc1cc(Nc2cc(N3CCN(C)CC3)nc(Sc3ccc(NC(=O)C4CC4)cc3)n2)n[nH]1 [Tozasertib] + Nc1cccc2c1CN(C1CCC(=O)NC1=O)C2=O [lenalidomide] (first compound 0.006 µM, partner dose 1 µM) | 154
10 | O=C(Nc1cc(C(F)(F)F)cc(C(F)(F)F)c1)c1cc(Cl)ccc1O + Cn1nnc2c(C(N)=O)ncn2c1=O [temozolomide] (first compound 0.016 µM, partner dose 2 µM) | 88.2
11 | COc1cc([C@@H]2c3cc4c(cc3[C@@H](O[C@@H]3O[C@@H]5CO[C@@H](C)O[C@H]5[C@H](O)[C@H]3O)[C@H]3COC(=O)[C@H]23)OCO4)cc(OC)c1O [etoposide] + Cn1sc(=O)n(Cc2ccccc2)c1=O [TDZD-8] (first compound 0.02 µM, partner dose 0.4 µM) | 56
